This is an account of results in publication PMC10988308.

The test deals with Ezrin (human (endogenous in EA.hy 926)), P15311. The test can be described thus: co-IP; anti-Ezrin antibody-conjugated beads, lysate of EA.hy 926 cells, 12 h at 4 °C, blot for PODXL; cells treated with TGF-β1 or VEGF, with or without NDF (5 or 20 μM) for 24 h. Particulars: remark: other sources report otherwise.

These are yes or no findings as the source states them, for the method shown. Binding seen in cells or lysates may run through a third protein. Some results given as binding are weak or reduced against the parent protein; the word gives no strength.

B1: Podocalyxin, O00592 23-558 (protein)
chain: SPSPSPSPSQNATQTTTDSSNKTAPTPASSVTIMATDTAQQSTVPTSKANEILASVKATTLGVSSDSPGTTTLAQQVSGPVNTTVARGGGSGNPTTTIESPKSTKSADTTTVATSTATAKPNTTSSQNGAEDTTNSGGKSSHSVTTDLTSTKAEHLTTPHPTSPLSPRQPTSTHPVATPTSSGHDHLMKISSSSSTVAIPGYTFTSPGMTTTLLETVFHHVSQAGLELLTSGDLPTLASQSAGITASSVISQRTQQTSSQMPASSTAPSSQETVQPTSPATALRTPTLPETMSSSPTAASTTHRYPKTPSPTVAHESNWAKCEDLETQTQSEKQLVLNLTGNTLCAGGASDEKLISLICRAVKATFNPAQDKCGIRLASVPGSQTVVVKEITIHTKLPAKDVYERLKDKWDELKEAGVSDMKLGDQGPPEEAEDRFSMPLIITIVCMASFLLLVAALYGCCHQRLSQRKDQQRLTEELQTVENGYHDNPTLEVMETSSEMQEKKVVSLNGELGDSWIVPLDNLTKDDLDEEEDTHL
As for B1, the binding entry is given as “binds”.
